Structures can show the parent of a compound that is named as a salt. This is one part of the list. Repeats are few or missing, and single values can be far off.
System: primary mouse Muller glia with Ascl1 overexpression
Experiment: progenitor-like (ProL) cell count fold change vs Ascl1-only control (log2 fold change); higher = more progenitor-like cells
Description: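 Primary P11 mouse Muller glia carrying dox-inducible Ascl1 were treated with Tocriscreen Stem Cell Library compounds at 0.1, 1 or 10 uM together with doxycycline for 5 days, then profiled by sci-Plex hashing and sci-RNA-seq2. Cells were annotated by marker genes and cell-type counts per well were size-factor adjusted. Read-outs are the log2 fold change of Neuronal (NeuPre + bipolar) and ProL cell counts versus the Ascl1-only control wells of the same collection day, plus the raw number of recovered cells per well. There is one well per dose, and wells with fewer than 20 cells were discarded.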

Row | Compound | progenitor-like (log2) (0.1 µM) | progenitor-like (log2) (1 µM) | progenitor-like (log2) (10 µM)
1 | CN(CCOc1ccc(CC2SC(=O)NC2=O)cc1)c1ccccn1 (centres undefined) [Rosiglitazone] (collection day: 2) | -0.134 | 0.181 | 0.263
2 | NC(=O)c1ccc(-c2nc(-c3ccccn3)c(-c3ccc4c(c3)OCO4)[nH]2)cc1 (collection day: 1) | 0.0641 | -0.211 | -0.459
3 | Cc1nn(-c2ccccc2)c(C)c1C=NN1CCN(Cc2ccccc2)CC1 (collection day: 1) | 0.184 | -0.29 | 0.71
4 | COC(=O)C1=C(C)NC(C)=C([N+](=O)[O-])C1c1ccccc1C(F)(F)F (centres undefined) (collection day: 1) | 0.447 | 0.826 | 0.447
5 | CC(ONC(=O)c1cc(C(F)(F)F)cc(C(F)(F)F)c1)C(=O)Nc1ccc(Cl)cc1 (centres undefined) (collection day: 2) | -0.363 | 0.0317 | –
6 | Cc1ccc(-c2cn3c4c(sc3n2)CCCC4)cc1 [Cyclic Pifithrin-alpha hydrobromide] (collection day: 2) | 0.236 | – | –
7 | c1cc(-c2cnn3cc(-c4ccc(OCCN5CCCCC5)cc4)cnc23)ccn1 [Dorsomorphin dihydrochloride] (collection day: 1) | 0.399 | 0 | –
8 | NCCNS(=O)(=O)c1ccc(Cl)c2ccncc12 [CKI 7 dihydrochloride] (collection day: 2) | 0.123 | -0.0324 | 0.123
9 | CC(=O)Nc1ccc(C(=O)Nc2ccccc2N)cc1 (collection day: 1) | 0.628 | 0.967 | -2.14
10 | CCc1ccc(CCOc2ccc(CC3SC(=O)NC3=O)cc2)nc1 (centres undefined) [Pioglitazone hydrochloride] (collection day: 2) | -0.0995 | 0 | 0.508
11 | O=C(NC1CCOCC1)c1ccc(-c2cc(-c3c[nH]nc3-c3ccccn3)ccn2)cc1 (collection day: 2) | 0.0627 | -0.0995 | -0.206
12 | O=C(O)C(Cc1c[nH]c2ccccc12)N1C(=O)c2ccccc2C1=O (centres undefined) (collection day: 2) | 0.0317 | -0.0656 | 0.181
13 | O=c1cc(N2CCOCC2)oc2c(-c3ccccc3)cccc12 (collection day: 1) | 0.447 | 0.585 | 1.21
14 | C[C@@H](N)[C@H]1CC[C@H](C(=O)Nc2ccncc2)CC1 (collection day: 1) | 0.447 | – | –
15 | CN(C)C(=N)NC(=N)N [Metformin hydrochloride] (collection day: 1) | 0.241 | 0.348 | 0.67

From the supplement of paper PMC11637464
